Experiment [1] addresses endogenous β-arrestin-1 (HepG2 cells) (human (endogenous in HepG2)) (UniProt P49407). The experiment in a line: co-IP; endogenous proteins; HepG2 lysate, IP with mouse anti-β-arrestin-1 antibody overnight, protein G affinity gel, Western blot. For orientation: A western blot detects proteins with antibodies after separation by electrophoresis.
Experiment [2] addresses T1, PPARα-LBD L302G/N303G (human) (UniProt Q07869).
T1 sequence: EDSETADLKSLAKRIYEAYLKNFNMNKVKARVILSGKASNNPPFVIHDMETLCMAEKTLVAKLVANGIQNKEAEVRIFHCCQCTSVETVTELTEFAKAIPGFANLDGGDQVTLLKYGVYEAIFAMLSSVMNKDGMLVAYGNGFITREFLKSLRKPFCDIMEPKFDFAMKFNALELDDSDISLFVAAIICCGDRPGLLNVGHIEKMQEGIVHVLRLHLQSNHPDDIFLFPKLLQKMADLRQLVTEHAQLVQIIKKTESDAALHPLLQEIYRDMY
Description: BLI; Octet Red 96; 50 μg/ml biotinylated PPARα-LBD or PPARγ-LBD (or their mutants) immobilised on streptavidin biosensors; analyte β-arrestin-1, βarr1M or peptides in solution (single 2 μM or serial dilutions, β-arrestin-1 0.5–32 μM); 25 °C; 2:1 heterogeneous ligand model and steady-state analysis; both purified.

By UniProt entry, the sequences of proteins in these tests, tags left out.
UniProt P49407: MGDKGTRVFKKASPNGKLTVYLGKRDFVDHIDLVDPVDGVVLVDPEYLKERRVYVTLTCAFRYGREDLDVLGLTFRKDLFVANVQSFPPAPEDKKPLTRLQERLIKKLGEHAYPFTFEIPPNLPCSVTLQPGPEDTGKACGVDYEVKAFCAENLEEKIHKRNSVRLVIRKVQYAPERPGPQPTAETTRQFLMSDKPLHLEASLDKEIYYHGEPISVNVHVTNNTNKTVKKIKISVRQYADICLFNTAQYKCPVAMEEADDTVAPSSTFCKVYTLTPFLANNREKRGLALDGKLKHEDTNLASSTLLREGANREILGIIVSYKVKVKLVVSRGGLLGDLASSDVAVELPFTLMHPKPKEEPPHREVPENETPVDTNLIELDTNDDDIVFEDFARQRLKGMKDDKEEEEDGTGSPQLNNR
UniProt P37231: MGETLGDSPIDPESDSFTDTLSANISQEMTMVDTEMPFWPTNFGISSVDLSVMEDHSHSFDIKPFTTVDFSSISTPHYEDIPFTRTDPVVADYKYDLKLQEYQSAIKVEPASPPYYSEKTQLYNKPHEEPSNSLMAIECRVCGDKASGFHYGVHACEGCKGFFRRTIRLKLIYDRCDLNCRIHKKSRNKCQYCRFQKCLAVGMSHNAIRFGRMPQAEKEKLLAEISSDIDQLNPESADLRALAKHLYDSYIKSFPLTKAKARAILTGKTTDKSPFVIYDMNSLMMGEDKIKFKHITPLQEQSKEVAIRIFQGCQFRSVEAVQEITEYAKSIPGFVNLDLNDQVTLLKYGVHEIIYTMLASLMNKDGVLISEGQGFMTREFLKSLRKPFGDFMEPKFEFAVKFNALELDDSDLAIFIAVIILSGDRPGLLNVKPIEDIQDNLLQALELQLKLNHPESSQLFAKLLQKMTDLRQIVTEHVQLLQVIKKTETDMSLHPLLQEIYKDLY
UniProt P29066: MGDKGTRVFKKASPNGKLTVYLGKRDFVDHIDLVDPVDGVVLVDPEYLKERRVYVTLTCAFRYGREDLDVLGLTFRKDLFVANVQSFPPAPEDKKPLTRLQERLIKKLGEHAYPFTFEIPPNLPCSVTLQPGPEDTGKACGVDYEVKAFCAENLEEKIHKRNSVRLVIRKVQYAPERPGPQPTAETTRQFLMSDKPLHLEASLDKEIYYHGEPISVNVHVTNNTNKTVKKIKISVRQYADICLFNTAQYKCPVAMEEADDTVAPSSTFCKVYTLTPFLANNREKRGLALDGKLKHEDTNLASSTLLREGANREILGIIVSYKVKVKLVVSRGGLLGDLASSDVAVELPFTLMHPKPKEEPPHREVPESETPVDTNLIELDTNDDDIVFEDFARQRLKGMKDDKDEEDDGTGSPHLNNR

Results are given in words; binding and its absence hold for the method and conditions named. For part of these data: Binding seen in cells or lysates may run through a third protein. Some results given as binding are weak or reduced against the parent protein; the word gives no strength.

For “endogenous PPARγ (HepG2 cells) (from UniProt P37231 1-505)”, the binding result in experiment [1] is on record as “binds”. As for “β-arrestin-1 (recombinant rattus β-arrestin-1) (from UniProt P29066 1-418)”, the binding result in experiment [2] is listed as “binds”.

B1: endogenous PPARα (HepG2 cells) (protein, UniProt Q07869 1-468)
chain: MVDTESPLCPLSPLEAGDLESPLSEEFLQEMGNIQEISQSIGEDSSGSFGFTEYQYLGSCPGSDGSVITDTLSPASSPSSVTYPVVPGSVDESPSGALNIECRICGDKASGYHYGVHACEGCKGFFRRTIRLKLVYDKCDRSCKIQKKNRNKCQYCRFHKCLSVGMSHNAIRFGRMPRSEKAKLKAEILTCEHDIEDSETADLKSLAKRIYEAYLKNFNMNKVKARVILSGKASNNPPFVIHDMETLCMAEKTLVAKLVANGIQNKEAEVRIFHCCQCTSVETVTELTEFAKAIPGFANLDLNDQVTLLKYGVYEAIFAMLSSVMNKDGMLVAYGNGFITREFLKSLRKPFCDIMEPKFDFAMKFNALELDDSDISLFVAAIICCGDRPGLLNVGHIEKMQEGIVHVLRLHLQSNHPDDIFLFPKLLQKMADLRQLVTEHAQLVQIIKKTESDAALHPLLQEIYRDMY
With B1, the binding entry in experiment [1] was “binds”.
